PMC9288506, “Compounds activating VCP D1 ATPase enhance both autophagic and proteasomal neurotoxic protein clearance” (Nature Communications, 2022)
No constants are given. Whether binding was seen depends on the method and setting. For some assays here: Binding seen in cells or lysates may run through a third protein. Some results given as binding are weak or reduced against the parent protein; the word gives no strength.

Amino acid sequences for entries named in this document (tags omitted).
UniProt Q6ZNE5: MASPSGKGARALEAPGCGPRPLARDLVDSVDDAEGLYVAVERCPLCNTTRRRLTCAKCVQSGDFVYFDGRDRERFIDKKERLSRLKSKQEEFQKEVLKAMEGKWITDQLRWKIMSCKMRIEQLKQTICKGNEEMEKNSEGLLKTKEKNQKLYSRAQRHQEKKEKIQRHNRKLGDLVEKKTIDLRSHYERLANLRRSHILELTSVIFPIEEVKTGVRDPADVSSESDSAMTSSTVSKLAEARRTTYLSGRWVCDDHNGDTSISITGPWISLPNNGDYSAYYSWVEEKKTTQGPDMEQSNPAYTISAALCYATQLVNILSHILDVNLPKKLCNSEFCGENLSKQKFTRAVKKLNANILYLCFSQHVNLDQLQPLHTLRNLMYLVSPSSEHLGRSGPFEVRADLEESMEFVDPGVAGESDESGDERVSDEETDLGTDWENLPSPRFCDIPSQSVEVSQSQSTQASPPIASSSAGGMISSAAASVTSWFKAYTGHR

Legend:
[1] = target: FLAG-tagged ATG14L (p3XFLAG-ATG14L), purified (UniProt Q6ZNE5); experiment: co-IP; in vitro PI3K assembly: individually purified FLAG-tagged PI3K components (VPS15 and VPS34 purified and added together) incubated alone or with purified VCP and/or 20 uM SMER28, then immunoprecipitation of ATG14L; western blot; both purified
[2] = target: ATG14L (Beclin 1-associated autophagy-related key regulator), endogenous (human (endogenous in HeLa)) (UniProt Q6ZNE5); experiment: co-IP; endogenous ATG14L immunoprecipitated from HeLa lysate (Dynabeads Protein A; 20 mM Tris pH 7.4, 2 mM MgCl2, 200 mM NaCl, 0.1% NP-40); cells treated with DMSO, 20 uM SMER28 or 10 uM DBeQ for 6 h; western blot

## purified VCP (from pGEX-VCP-GST, GST tag removed) (from UniProt P55072 1-806)
[1]
  binding: binds

## Valosin-containing protein (VCP), endogenous (from UniProt P55072 1-806)
[2]
  binding: binds
